Assay results reported in PMC10163288.
This is one part of the list.

B1: il10ra_site1_normal_mot_HHH_b1_02492_000000051_0001_1_21_H_._HHH_b1_03692_0001_0000100014_0000001_0 (protein)
chain: SSSSDEAYEAARRAIEEVSRLFEEGNREEARELARELIEELEELGNEAALWAAEHLLRALESSSS
B2: il10ra_site1_sap_17_mot_HHH_b1_03763_000000209_0001_22_38_H_._HHH_b2_07616_0001_0000200007_0000001_0_0001_af2pred_0001 (protein)
chain: SSSSSSDEEEVEELLEEARHVPDPFERAYLLVRAFAVAARSRNPELEELVKEVAIKLSSSSSSSS
B3: il10ra_site1_normal_mot_HHH_b1_05357_000000034_0001_23_39_H_._HHH_b2_02441_0001_0000300049_0000001_1_af2pred_0001 (protein)
chain: SSSSSEERQEELREEVERLLKEGDLKRAAYALLHAFAIANRLNDEELREVIEELARLVAELSSSS
B4: il10ra_site1_sap_13_mot_HHH_b2_03220_af2_000000223_0001_23_40_H_._HHH_b1_00095_0001_0000100004_0000001_0_0001_af2pred_0001 (protein)
chain: SSSSDDRLREIVELIRKAIQLIAEGDPEEARRVLEEAEELAEEANNPIAERVLKTLKEQLDSSSS
B5: il10ra_site1_normal_mot_HHH_b1_08477_000000091_0001_40_57_H_._HHH_b2_02252_0001_0000100010_0000002_0 (protein)
chain: SSSSSDAERSLRRLLEALRYLAELGDEEAFRQLAQFIKALARAANDPEIEERVEEIEERVHSSSS
B6: il10ra_site1_sap_17_mot_HHH_b2_02736_000000092_0001_22_38_H_._HHH_b1_02582_af2_0001_0000600060_0000001_0_0001_af2pred_0001 (protein)
chain: SSSSSDLEELEEIVEELAKRVDEEVRRALERYLEAAERAKELGDEERAELALRVAIALGSSSSSS
B7: il10ra_site1_normal_mot_HHH_b2_01310_000000089_0001_41_55_H_._HHH_b1_08628_af2_0001_0000100003_0000001_0_af2pred_0001 (protein)
chain: SSSDEEERAEELYERAEELIEEGDEEEAIRLLAELSRFVFKLGDPELTRLVLELAELIKKLSSSS
B8: il10ra_site1_normal_mot_HHH_b1_08440_000000140_0001_1_20_H_._HHH_b1_00906_af2_0001_0000400011_0000001_0 (protein)
chain: SSSSDLEEEVEELLEELKHAKDQQEFAELALRVVRVAHESSDPELLEEVWEVIKEVAKRLSSSSS
B9: il10ra_site1_normal_mot_6bb093d23f5042b6c551c363657da53b_0001_1_000000153_0001_51_65_H_._HHH_b2_04858_af2_0001_0000500010_0000001_0 (protein)
chain: SSSSSEVEKEVEELIEEVEEALKQGDNELAIRLLREAVRIAAENDNPELLEELQRLAHLIVSSSS
B10: il10ra_site1_sap_10_mot_HHH_b1_06341_af2_000000167_0001_17_35_H_._HHH_b2_03230_0001_0000100007_0000001_0_0001_af2pred_0001 (protein)
chain: SSSSDEEHEEFEELYEEAEELLKEGDPHKVLELIRRLLELALELNDPELQRRVLELLQRLASSSS
B11: il10ra_site1_normal_mot_HHH_b1_02997_000000220_0001_39_52_H_._HHH_b2_07433_af2_0001_0000200010_0000001_0 (protein)
chain: SSSSSSEENERVYKLIRKALHIDDEEERRELLQEAVELAEEGGNENLLFNARYALKDVEESSSSS
B12: il10ra_site1_sap_22_mot_HHH_b1_06788_af2_000000238_0001_19_36_H_._HHH_b2_06645_0001_0000300026_0000001_0_0001_af2pred_0001 (protein)
chain: SSSSSDTEEEAEELYEQAREAFEKGDEEKARKLFHELVRLAREYNDRLAARLLSQLLELGSSSSS
B13: il10ra_site1_normal_mot_HHH_b2_00134_af2_000000008_0001_38_52_H_._4d38eb9c16805ff794392fe48eb80f74_0001_0001_0000200010_0000001_0 (protein)
chain: SLEELLEELLRELGVPPERIELLKLAFRRQRKQGSPPENVLEALLHLLEATGDPAREAVEELLER
B14: il10ra_site1_sap_25_mot_HHH_b1_05357_000000034_0001_23_39_H_._HHH_b2_00731_0001_0000300016_0000001_0_0001 (protein)
chain: SSSSDEYVRMTLKFAEWLAEEGDRDAVKHFLRVAKELAEDAGDEELEELIKEVEEEVQKLLSSSS
B15: il10ra_site1_normal_mot_HHH_b1_00999_000000080_0001_41_55_H_._HHH_b2_06260_0001_0000100005_0000001_0 (protein)
chain: SSSSSEDEERVEELLEEAEEAAKRDPEEAARLLQEATQIALRNQNQELLQLVWRVVKELGDSSSS
B16: il10ra_site1_sap_31_mot_HHH_b1_05789_000000283_0001_1_15_H_._HHH_b2_07683_0001_0000400018_0000001_0_0001 (protein)
chain: SSSSSDEHQRLYELLREAIEARADGNPEEAQEILEEVIELAEELNNWSVLINARYLLERISSSSS
B17: il10ra_site1_sap_22_mot_HHH_b1_05587_000000266_0001_24_40_H_._HHH_b1_01541_0001_0000300024_0000001_0_0001 (protein)
chain: SSDPEELVEEAKELIEQAHELGIFSEQQSRALKHFLEAALEQGNEEIIRALLEALKLIIESHESS
B18: il10ra_site1_sap_27_mot_HHH_b1_04514_000000156_0001_1_18_H_._HHH_b2_02171_af2_0001_0000500039_0000002_1_0001 (protein)
chain: SSSSDEEELEELLEELERLIEEGDRERAFELIHRILELAYRLNDPEALRRLWELVKRLAKSSSSS
B19: il10ra_site1_sap_25_mot_cff26900b2948c323735a169404cbef0_0001_1_000000271_0001_18_33_H_._d4eec69c0b90ce06bf3cc15fde6963ba_0001_1_0001_0000100001_0000001_0_0001 (protein)
chain: SSSSDEEAREVYELSRRAAELDSEGDEEEAEEVLREAEELAREANNWAVLAAVEHLARITSSSSS
B20: il10ra_site1_normal_mot_HHH_b2_00475_000000107_0001_44_57_H_._HHH_b1_07089_af2_0001_0000300033_0000001_0 (protein)
chain: SSSSDEEEVVELIFRAVRLIAQGNLEEAEELLKEAEKIARENNDEELERYVKIALHFVESHSSSS
B21: il10ra_site1_sap_21_mot_HHH_b1_06789_af2_000000041_0001_1_20_H_._HHH_b1_07559_0001_0000100002_0000002_0_0001 (protein)
chain: SSSSSDEEERRVEELIEELREIEDPHEAARLVIEALRLIFRLSDAELLHELWRAFKEVINSSSSS
B22: il10ra_site1_normal_mot_e1dd4851c59bc1cdde016f988f6856bd_0001_1_000000200_0001_16_31_H_._HEEHE_0473_0001_0000300013_0000001_0 (protein)
chain: DEEREVEQMLEFQARAAGVKSVEVTTENGQVTVTVENVSPRAQELIRAAVLRLEERGLNVSFETR
B23: il10ra_site1_sap_19_mot_HHH_b2_01447_af2_000000258_0001_1_20_H_._HHH_b1_04981_af2_0001_0000300014_0000002_0_0001 (protein)
chain: SSSSNDELNREAYRLSREAMKLSRRDPEEARELLEELLRELEELGNPILALNVEHVLRRLSSSSS
B24: il10ra_site1_normal_mot_HHH_b1_02062_000000185_0001_1_20_H_._HHH_b1_06583_0001_0000300010_0000001_0_af2pred_0001 (protein)
chain: SSSSSEELREAIEISRRIAELLADGDKEEAEELLERLKELAEKLKNPLLEFLLRLLERELNSSSS
B25: il10ra_site1_normal_mot_HHH_b1_07380_000000129_0001_1_20_H_._HHH_b1_03356_0001_0000200015_0000001_0_af2pred_0001 (protein)
chain: SSSSSKAEEVYRLSREAAELLADGNPEEARQVVEEALELAEELGNLVLRVIIEFLLEHIKSSSSS
B26: il10ra_site1_normal_mot_HHH_b1_05056_000000217_0001_1_20_H_._HHH_b2_05694_0001_0000300014_0000001_0 (protein)
chain: SSSSSSDAEEEVERLLEEAEHIEDPKEVIRLLLKATQLALHANDPELLQEVWEVVKRLSSSSSSS
B27: il10ra_site1_normal_mot_HHH_b1_05329_000000008_0001_43_56_H_._ems_3hM_910_0001_0000300015_0000001_0 (protein)
chain: SDEFEEHVKELVEEAKEAVEKNDEETVQKISHILWRLAMEAEDPEEVELASRAFIKVLRLQFKSS
B28: il10ra_site1_normal_mot_HHH_b1_00999_000000080_0001_41_55_H_._HHH_b1_00228_0001_0000300024_0000001_0 (protein)
chain: SSSSDVEEEVEELLEEAKEIPDPRELNEVLLRALRLALEASDQELLQLVWRVVKELGEKLSSSSS
B29: il10ra_site1_normal_mot_HHH_b2_06786_000000018_0001_41_57_H_._HHH_b1_00123_0001_0000100002_0000001_0 (protein)
chain: SSSSSDEEEERVEELIEELRKIEDPRKASRLVIEALRLIFELSDEELLHELWRAAREVIKSSSSS
B30: il10ra_site1_normal_mot_HHH_b1_04940_000000219_0001_1_18_H_._HHH_b2_03338_0001_0000200015_0000002_0 (protein)
chain: SSSSDEDERAVRRLLHAAKQIDDEEYVRLTLRFAKAIAESTNNDELKRLIEEVEEELKEKSSSSS
B31: il10ra_site1_sap_20_mot_HHH_b1_02420_000000033_0001_20_36_H_._HHH_b2_03617_0001_0000100006_0000001_0_0001_af2pred_0001 (protein)
chain: SSSSEEELVRFALRSIRLAEELGDEEKLRAALREIEVLAKYTNNPEAREVLEEARELVEEVLSSS
B32: il10ra_site1_sap_23_mot_HHH_b1_03314_af2_000000278_0001_42_55_H_._HHH_b1_07930_af2_0001_0000100006_0000001_0_0001_af2pred_0001 (protein)
chain: SSSSSDEEAEEEVERLLEEAKHVDDPEERLRLRLEAWRLAVEANDPELEELILEWTIRKRSSSSS
B33: il10ra_site1_normal_mot_HHH_b2_07784_af2_000000103_0001_19_36_H_._HHH_b2_04966_0001_0000300045_0000002_0 (protein)
chain: SSSSDEEYEAVKRLIEEIVEALRNNDEELVEELLEELRRLAEEINTPAAKWSLRALEKALNSSSS
B34: il10ra_site1_normal_mot_HHH_b1_03333_000000091_0001_1_17_H_._HHH_b2_08349_af2_0001_0000500032_0000001_0 (protein)
chain: SSSSNWYEEVKKAIEEASELLEKGNPEEAEEVLEEILEELERLGNVAALWSVEHLLRLIRQSSSS
B35: il10ra_site1_sap_27_mot_9c3e5e2d2b9ffb70dc788f52fbfab6d5_0001_1_000000198_0001_1_14_H_._HHH_b1_06862_af2_0001_0000300024_0000001_0_0001_af2pred_0001 (protein)
chain: SSSSSLEEILEEAEELARENNNATAEAILRYLKEAIERTGDPRAVENAEIVAEIAERAAKSSSSS
B36: il10ra_site1_normal_mot_7f9b3cf633cfd27bca007b62ade1be3b_0001_1_000000138_0001_17_32_H_._HHH_b2_03161_0001_0000400011_0000002_0 (protein)
chain: SSSSDLEEALRFLELSLRRAEELNDPEQIRAAALFLLNLAEEANDERIFEEAHEILEEVNSSSSS
B37: il10ra_site1_sap_19_mot_HHH_b2_01447_af2_000000258_0001_1_20_H_._HHH_b1_08652_af2_0001_0000700021_0000001_0_0001 (protein)
chain: SSSSSQEKTHAEAVLWFAEWTPNPDVAAKAAEFALEKAEELNDEELKERIRELLEELEKGSSSSS

Each binder was assayed against il10ra, Q13651 (assay: yeast display titration).

Apparent Kd, inactive:
B1 no binding seen
B2 no binding seen
B3 no binding seen
B4 no binding seen
B5 no binding seen
B6 no binding seen
B7 no binding seen
B8 no binding seen
B9 no binding seen
B10 no binding seen
B11 no binding seen
B12 no binding seen
B13 no binding seen
B14 no binding seen
B15 no binding seen
B16 no binding seen
B17 no binding seen
B18 no binding seen
B19 no binding seen
B20 no binding seen
B21 no binding seen
B22 no binding seen
B23 no binding seen
B24 no binding seen
B25 no binding seen
B26 no binding seen
B27 no binding seen
B28 no binding seen
B29 no binding seen
B30 no binding seen
B31 no binding seen
B32 no binding seen
B33 no binding seen
B34 no binding seen
B35 no binding seen
B36 no binding seen
B37 no binding seen

At a glance, part of the list above:
Apparent Kd, inactive:
B28 no binding seen
B29 no binding seen
